# Laboratory results: patent US5187277A, “DL-3-[4-[4-(2-pyridyl)-1-piperazinyl]-butyl]-1,8,8-trimethyl-3-az abicyclo[(3]octane-2,4-dione having psychotropic and antiemetic effect” (priority 1990, dated 1993)
# Test: in vivo
# Conditions: ip
smiles,measurement,value
CN1C(=O)CN=C(c2ccccc2)c2cc(Cl)ccc21 [Diazepame],LD50,110 ± 27 mg/kg
